The values below come from paper PMC10482945.

Chains of the proteins cited; added tags and fusions are not shown. Lines headed by an entry give the natural chain unless they say otherwise; changes in a name come on top.
UniProt P19484: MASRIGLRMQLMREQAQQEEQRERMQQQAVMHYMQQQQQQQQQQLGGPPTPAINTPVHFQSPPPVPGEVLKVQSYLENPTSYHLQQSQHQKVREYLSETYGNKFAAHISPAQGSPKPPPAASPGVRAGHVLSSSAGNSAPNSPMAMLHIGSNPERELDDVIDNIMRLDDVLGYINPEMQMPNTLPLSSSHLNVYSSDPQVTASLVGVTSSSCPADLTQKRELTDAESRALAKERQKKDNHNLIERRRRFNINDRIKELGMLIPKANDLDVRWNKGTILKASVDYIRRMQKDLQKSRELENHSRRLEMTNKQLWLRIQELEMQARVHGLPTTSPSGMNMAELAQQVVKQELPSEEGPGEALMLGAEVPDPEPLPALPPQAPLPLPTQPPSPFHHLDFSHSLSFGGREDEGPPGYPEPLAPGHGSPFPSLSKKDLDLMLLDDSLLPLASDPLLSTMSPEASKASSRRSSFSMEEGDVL
UniProt P62136: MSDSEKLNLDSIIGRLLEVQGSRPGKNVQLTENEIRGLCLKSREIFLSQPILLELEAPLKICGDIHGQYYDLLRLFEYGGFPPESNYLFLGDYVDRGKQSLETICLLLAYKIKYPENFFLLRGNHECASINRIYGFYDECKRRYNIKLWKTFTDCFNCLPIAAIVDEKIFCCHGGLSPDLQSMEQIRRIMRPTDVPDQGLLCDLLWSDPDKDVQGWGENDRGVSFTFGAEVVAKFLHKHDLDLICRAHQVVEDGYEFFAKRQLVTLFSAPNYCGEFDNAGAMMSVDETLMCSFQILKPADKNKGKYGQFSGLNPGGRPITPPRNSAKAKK
UniProt Q96SB3: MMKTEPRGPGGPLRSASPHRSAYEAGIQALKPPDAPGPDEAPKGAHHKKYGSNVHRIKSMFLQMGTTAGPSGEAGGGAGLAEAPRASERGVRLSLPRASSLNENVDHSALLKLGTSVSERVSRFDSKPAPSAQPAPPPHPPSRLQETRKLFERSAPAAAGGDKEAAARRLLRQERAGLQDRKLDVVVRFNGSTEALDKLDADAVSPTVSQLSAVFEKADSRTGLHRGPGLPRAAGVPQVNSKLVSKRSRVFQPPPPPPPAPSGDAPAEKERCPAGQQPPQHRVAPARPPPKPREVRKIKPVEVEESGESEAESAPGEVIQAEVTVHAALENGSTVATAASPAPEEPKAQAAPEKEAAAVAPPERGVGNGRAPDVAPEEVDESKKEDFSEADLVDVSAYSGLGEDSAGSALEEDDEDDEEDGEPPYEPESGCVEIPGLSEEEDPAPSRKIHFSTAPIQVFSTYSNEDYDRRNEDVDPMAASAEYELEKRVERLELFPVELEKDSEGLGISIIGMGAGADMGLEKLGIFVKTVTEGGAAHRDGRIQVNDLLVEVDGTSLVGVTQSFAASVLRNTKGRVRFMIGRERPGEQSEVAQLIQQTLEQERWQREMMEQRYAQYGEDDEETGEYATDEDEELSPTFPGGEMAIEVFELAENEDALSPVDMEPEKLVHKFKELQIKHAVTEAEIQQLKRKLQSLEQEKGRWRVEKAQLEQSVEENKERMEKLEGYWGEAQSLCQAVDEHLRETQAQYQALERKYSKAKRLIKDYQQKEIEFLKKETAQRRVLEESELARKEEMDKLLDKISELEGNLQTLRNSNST
UniProt Q9H5I1: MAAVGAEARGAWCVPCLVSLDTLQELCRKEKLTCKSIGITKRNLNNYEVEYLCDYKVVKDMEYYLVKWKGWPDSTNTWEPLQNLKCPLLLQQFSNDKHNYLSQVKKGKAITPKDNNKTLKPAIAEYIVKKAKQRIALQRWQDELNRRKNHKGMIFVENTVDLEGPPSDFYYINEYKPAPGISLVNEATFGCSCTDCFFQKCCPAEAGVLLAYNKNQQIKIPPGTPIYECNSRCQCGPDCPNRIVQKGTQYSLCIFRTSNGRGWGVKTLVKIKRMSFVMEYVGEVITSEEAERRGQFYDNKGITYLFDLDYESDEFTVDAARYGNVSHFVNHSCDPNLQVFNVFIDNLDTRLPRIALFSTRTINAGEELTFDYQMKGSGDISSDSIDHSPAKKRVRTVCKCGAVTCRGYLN

The target of assay [1] is transcription factor EB (TFEB), endogenous in nucleus pulposus cells (human (endogenous in human NPCs)) (UniProt P19484). Put plainly: co-IP; endogenous proteins in NPC lysate (NP-40), primary antibody and Protein A/G beads at 4 °C, Western blot; cells untreated or treated with TBHP, MG132, si-PPP1CA, si-PPP1R9B, si-SUV39H2 or SUV39H2 overexpression.
Assay [2] addresses protein phosphatase 1 catalytic subunit alpha (PPP1CA), endogenous in nucleus pulposus cells (human (endogenous in human NPCs)) (UniProt P62136). Described as above.
Assay [3] deals with GST-PPP1R9B expressed in HEK293T cells (UniProt Q96SB3). Put plainly: co-IP; HEK293T cells cotransfected with tagged constructs, NP-40 lysate, primary antibody and Protein A/G beads at 4 °C, Western blot.
Assay [4] deals with His-PPP1CA (wild-type) expressed in HEK293T cells (UniProt P62136). The description is as above.
The target in assay [5] is GST-PPP1R9B expressed in nucleus pulposus cells (UniProt Q96SB3). Description: co-IP; NPCs cotransfected with tagged constructs, with or without TBHP, NP-40 lysate, primary antibody and Protein A/G beads at 4 °C, Western blot. (Immunoblotting shows a protein as a band on a membrane.)
Assay [6] addresses Flag-TFEB expressed in HEK293T cells (UniProt P19484). Put plainly: co-IP; HEK293T cells cotransfected with tagged constructs, NP-40 lysate, primary antibody and Protein A/G beads at 4 °C, Western blot.

No constants are given. Whether binding was seen depends on the method and setting. In cells and extracts the contact can be indirect. Some binding calls cover weakened binding; strength is not graded here.

As to “protein phosphatase 1 regulatory subunit 9B (PPP1R9B), endogenous in nucleus pulposus cells (from UniProt Q96SB3 1-817)”, the binding entry in assay [1] and in assay [2] was “binds” each time. Take “protein lysine methyltransferase suppressor of variegation 3-9 homologue 2 (SUV39H2), endogenous in nucleus pulposus cells (from UniProt Q9H5I1 1-410) (enzyme)”: the binding result in assay [2] was “binds”. For the substance “His-PPP1CA K141R (KR, methyl-deficient mutant) expressed in HEK293T cells (from UniProt P62136 1-330) (enzyme)”, in assay [3], the binding result is listed as “binds”. Turning to “Mbp-SUV39H2 expressed in HEK293T cells (from UniProt Q9H5I1 1-410) (enzyme)”, in assay [4], the binding result is on record as “binds”. As for “His-PPP1CA K141R (KR mutant) expressed in nucleus pulposus cells (from UniProt P62136 1-330) (enzyme)”, the binding entry in assay [5] was “binds”.

For the substance “His-PPP1CA (wild-type) expressed in HEK293T cells (from UniProt P62136 1-330) (enzyme)”, the binding entry in assay [3] is “binds”. As to “His-PPP1CA (wild-type) expressed in nucleus pulposus cells (from UniProt P62136 1-330) (enzyme)”, the binding entry in assay [5] is “binds”. In the case of “GST-PPP1R9B expressed in HEK293T cells (from UniProt Q96SB3 1-817)”, the binding result in assay [6] and in assay [4] was “binds” throughout.
